According to the supplement of paper PMC10849652:
The list shows a part of the results.

Chains of the proteins cited; added tags and fusions are not shown. Lines headed by an entry give the natural chain unless they say otherwise; changes in a name come on top.
UniProt P0DPH7, whole entry, looked up: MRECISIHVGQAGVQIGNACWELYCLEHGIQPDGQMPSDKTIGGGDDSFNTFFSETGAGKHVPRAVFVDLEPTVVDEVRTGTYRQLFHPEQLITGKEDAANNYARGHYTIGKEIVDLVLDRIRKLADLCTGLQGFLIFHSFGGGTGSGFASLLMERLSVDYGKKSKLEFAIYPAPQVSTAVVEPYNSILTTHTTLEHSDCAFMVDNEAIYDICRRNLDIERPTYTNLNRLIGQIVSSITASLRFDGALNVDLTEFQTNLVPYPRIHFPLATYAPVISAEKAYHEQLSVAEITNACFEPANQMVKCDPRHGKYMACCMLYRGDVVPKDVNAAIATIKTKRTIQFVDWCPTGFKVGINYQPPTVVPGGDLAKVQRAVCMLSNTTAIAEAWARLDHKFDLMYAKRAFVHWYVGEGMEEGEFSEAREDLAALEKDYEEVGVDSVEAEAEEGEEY
UniProt Q14CS0: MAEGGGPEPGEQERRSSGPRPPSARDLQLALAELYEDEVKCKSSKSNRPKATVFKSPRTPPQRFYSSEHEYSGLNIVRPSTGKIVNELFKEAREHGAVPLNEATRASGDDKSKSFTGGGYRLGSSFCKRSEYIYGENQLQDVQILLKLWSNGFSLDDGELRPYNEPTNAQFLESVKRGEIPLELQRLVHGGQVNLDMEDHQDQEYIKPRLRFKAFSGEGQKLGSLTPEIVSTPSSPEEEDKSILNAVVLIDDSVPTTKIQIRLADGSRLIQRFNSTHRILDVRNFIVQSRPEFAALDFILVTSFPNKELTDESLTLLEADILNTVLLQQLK
UniProt Q15819: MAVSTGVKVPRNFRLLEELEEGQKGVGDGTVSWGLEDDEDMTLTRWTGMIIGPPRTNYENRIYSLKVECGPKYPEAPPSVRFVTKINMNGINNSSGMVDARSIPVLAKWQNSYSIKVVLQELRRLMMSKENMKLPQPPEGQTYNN
UniProt Q712K3: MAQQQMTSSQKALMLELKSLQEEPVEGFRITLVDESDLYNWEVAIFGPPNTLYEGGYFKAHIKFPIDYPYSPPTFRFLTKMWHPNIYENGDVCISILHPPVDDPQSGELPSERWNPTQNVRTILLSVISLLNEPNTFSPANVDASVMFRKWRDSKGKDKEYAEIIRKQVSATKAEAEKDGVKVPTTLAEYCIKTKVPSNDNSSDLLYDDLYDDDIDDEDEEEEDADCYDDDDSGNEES
UniProt Q99757: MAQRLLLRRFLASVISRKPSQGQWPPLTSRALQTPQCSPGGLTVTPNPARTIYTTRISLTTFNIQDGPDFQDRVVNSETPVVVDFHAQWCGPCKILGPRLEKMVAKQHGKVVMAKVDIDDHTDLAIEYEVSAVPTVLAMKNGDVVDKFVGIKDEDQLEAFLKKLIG
UniProt Q9BZL1: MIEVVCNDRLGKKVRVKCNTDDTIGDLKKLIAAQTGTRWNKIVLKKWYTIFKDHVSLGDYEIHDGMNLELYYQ
UniProt Q16763: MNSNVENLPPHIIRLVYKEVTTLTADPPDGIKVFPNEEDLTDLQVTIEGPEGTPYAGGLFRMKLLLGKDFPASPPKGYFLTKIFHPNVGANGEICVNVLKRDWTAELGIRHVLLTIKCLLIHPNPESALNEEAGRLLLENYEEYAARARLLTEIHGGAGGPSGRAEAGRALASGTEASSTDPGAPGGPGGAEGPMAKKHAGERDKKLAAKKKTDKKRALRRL
UniProt Q9Y385: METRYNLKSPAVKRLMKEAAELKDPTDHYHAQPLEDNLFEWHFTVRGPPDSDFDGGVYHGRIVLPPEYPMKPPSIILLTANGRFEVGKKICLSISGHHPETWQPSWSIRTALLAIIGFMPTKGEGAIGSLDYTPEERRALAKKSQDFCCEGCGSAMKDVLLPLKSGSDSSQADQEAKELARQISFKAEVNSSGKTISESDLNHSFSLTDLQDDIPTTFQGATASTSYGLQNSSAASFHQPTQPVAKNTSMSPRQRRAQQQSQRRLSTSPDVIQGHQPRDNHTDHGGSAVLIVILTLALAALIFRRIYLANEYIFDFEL

Tests used:
Assay in all cases: log2 fold change, soluble protein after heating vs DMSO (PISA); higher = thermal stabilisation; K562 lysate, 10 uM; active = over 0.2 and 3.5 SD of the protein, either way, in both replicates (recomputed)
[1] = compound: C1=CC=C(C=C1)[C@H](COC2=CC3=C(C=C2)NC(=O)N3)NC(=O)C4=CC=CN(C4=O)CC5=CC(=C(C=C5)F)F
How it was run: (§1)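 K562 pellets were dounce-homogenised in PBS pH 7.4 with 1 mM MgCl2, and the crude extract at 1 mg/mL protein was treated with 10 μM compound for 30 min. Aliquots were heated for 3 min across 48°C-58°C, pooled, and brought to 0.5% NP-40 at 4°C; soluble protein was the supernatant after 21,000xg for 90 min. Soluble protein was quantified by TMTpro 16plex LC-MS/MS with channel sums equalised, and reported as log2 fold change in thermal stability against DMSO controls, with values from duplicates.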

[2] = compound: CC1=C(SC2=C1C(=N[C@H](C3=NN=C(N32)C)CC(=O)N)C4=CC=C(C=C4)Cl)C
How it was run: as §1

[3] = compound: CC1=C2C(=CC=C1)N=C(N(C2=O)C3=CC=CC=C3C)CN4C=NC5=C(N=CN=C54)N
How it was run: as §1

[4] = compound: c1ccc([C@@H]2C[C@H]2NC2CCNCC2)cc1
How it was run: as §1

[5] = compound: Cc1sc2c(c1C)C(c1ccc(Cl)cc1)=N[C@@H](CC(=O)OC(C)(C)C)c1nnc(C)n1-2
How it was run: as §1

Measured: log2 fold change

TUBB6 (UniProt K7ES63)
inactive: [1] -0.115 | [2] 0.02 | [3] -0.028 | [4] -0.085

TUBA3C (UniProt P0DPH7)
inactive: [1] 0.012 | [2] 0.022 | [3] 0.029 | [5] -0.017 | [4] -0.074

UBXN2B (UniProt Q14CS0)
inactive: [1] 0.028 | [2] -0.03 | [3] 0.019 | [5] 0.042 | [4] 0.014

UBE2V2 (UniProt Q15819)
inactive: [1] 0.004 | [2] -0.017 | [3] -0.016 | [5] 0.017 | [4] 0.017

UBE2R2 (UniProt Q712K3)
inactive: [1] -0.031 | [2] -0.015 | [3] 0.031 | [5] 0.012 | [4] 0.034

TXN2 (UniProt Q99757)
inactive: [1] 0.082 | [2] -0.143 | [3] 0.045 | [5] 0 | [4] -0.119

UBL5 (UniProt Q9BZL1)
inactive: [1] 0.063 | [2] 0.008 | [3] -0.06 | [5] 0.005 | [4] -0.167

UBE2S (UniProt Q16763)
inactive: [1] -0.017 | [2] 0.036 | [3] -0.024 | [5] 0 | [4] -0.009

UBE2J1 (UniProt Q9Y385)
inactive: [1] -0.078 | [2] 0.027 | [3] 0.041 | [5] -0.077 | [4] 0.067
